# Test results as given in paper PMC10284794.
# By UniProt entry, the sequences of proteins in these tests, tags left out. Residues count along the entry.
# UniProt P05164, residues 49-745: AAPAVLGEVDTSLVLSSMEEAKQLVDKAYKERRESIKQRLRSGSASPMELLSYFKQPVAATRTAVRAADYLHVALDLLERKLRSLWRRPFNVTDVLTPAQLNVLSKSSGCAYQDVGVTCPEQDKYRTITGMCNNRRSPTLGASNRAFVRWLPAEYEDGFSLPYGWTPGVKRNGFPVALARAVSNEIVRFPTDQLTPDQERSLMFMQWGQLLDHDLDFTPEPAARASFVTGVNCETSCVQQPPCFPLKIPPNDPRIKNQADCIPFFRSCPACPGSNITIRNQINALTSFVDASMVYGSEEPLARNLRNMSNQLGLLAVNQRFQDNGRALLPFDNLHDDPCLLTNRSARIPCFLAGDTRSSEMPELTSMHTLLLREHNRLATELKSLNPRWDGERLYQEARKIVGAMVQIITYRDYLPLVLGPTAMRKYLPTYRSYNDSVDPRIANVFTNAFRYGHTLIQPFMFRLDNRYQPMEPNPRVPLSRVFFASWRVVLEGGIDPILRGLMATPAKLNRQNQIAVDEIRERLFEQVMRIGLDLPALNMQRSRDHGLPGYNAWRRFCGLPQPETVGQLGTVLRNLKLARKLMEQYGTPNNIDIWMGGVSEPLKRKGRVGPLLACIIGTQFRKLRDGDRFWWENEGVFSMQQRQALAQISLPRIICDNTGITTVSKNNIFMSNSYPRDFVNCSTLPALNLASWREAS
# UniProt Q9QUK6, residues 26-835: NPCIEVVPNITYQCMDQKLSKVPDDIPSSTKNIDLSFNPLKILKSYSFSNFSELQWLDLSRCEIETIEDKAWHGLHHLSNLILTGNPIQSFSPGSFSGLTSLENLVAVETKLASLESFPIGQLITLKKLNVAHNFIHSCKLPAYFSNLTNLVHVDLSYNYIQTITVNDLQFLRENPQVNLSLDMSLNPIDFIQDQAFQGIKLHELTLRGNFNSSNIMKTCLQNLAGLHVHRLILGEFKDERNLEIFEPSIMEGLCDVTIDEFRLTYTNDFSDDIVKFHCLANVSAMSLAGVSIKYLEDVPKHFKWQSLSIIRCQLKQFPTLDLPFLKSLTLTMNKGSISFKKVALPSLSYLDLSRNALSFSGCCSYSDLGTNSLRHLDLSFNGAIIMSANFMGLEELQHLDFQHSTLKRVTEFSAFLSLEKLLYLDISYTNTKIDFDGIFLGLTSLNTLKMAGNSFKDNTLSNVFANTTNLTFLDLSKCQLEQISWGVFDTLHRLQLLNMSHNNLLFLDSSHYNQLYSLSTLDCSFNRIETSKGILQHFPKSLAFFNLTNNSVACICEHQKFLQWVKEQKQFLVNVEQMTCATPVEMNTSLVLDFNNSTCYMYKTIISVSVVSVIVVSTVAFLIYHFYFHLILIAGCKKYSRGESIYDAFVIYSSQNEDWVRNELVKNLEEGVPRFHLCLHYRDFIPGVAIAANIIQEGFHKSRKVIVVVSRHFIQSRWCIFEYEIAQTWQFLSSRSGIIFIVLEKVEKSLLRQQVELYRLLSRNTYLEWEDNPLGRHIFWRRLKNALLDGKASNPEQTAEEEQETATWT
# Results are given in words; binding and its absence hold for the method and conditions named. Binding seen in cells or lysates may run through a third protein. Some results given as binding are weak or reduced against the parent protein; the word gives no strength.
# T1: RNF128, RING finger protein 128 (mouse (endogenous in MH-S)) (UniProt Q9D304)
# T1 sequence: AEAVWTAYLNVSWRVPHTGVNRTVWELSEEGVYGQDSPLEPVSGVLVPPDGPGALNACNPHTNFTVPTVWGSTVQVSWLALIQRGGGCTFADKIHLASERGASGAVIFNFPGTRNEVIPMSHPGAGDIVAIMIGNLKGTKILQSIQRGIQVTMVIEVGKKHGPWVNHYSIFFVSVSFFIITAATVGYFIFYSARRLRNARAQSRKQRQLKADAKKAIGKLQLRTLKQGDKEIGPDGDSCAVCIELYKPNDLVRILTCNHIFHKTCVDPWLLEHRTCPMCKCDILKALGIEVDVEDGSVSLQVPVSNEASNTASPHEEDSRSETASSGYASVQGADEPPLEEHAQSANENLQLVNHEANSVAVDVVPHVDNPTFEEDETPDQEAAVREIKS
# T2: RNF128, RING finger protein 128 (human (endogenous in HL-60)) (UniProt Q8TEB7)
# T2 sequence: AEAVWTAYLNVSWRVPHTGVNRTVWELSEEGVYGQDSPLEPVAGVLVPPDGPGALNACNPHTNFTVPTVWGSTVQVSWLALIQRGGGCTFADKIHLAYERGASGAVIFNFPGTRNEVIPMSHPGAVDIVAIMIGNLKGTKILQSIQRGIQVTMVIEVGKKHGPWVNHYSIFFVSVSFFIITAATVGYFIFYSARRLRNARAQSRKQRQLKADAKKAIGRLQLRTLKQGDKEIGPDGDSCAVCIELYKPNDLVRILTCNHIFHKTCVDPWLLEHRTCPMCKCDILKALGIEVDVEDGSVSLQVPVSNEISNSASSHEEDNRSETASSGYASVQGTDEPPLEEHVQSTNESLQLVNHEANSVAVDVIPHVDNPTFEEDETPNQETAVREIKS
# Legend:
# [1] = biological target: T1, RNF128, RING finger protein 128 (mouse (endogenous in MH-S)); assay: co-IP; endogenous proteins; extracts from MH-S cells immunoprecipitated with anti-RNF128, anti-TLR4 or anti-IgG overnight at 4 °C, Dynabeads Protein G, washes with SNNTE buffer (0.5 M NaCl, 1% NP-40); immunoblot
# [2] = biological target: T2, RNF128, RING finger protein 128 (human (endogenous in HL-60)); assay: co-IP; endogenous proteins; extracts from differentiated HL-60 cells immunoprecipitated with anti-RNF128, anti-MPO or anti-IgG overnight at 4 °C, Dynabeads Protein G, washes with SNNTE buffer (0.5 M NaCl, 1% NP-40); immunoblot
# [3] = biological target: Myeloperoxidase (human (endogenous in HL-60)) (UniProt P05164); assay: as above
# [4] = biological target: TLR4 (mouse (endogenous in MH-S)) (UniProt Q9QUK6); assay: co-IP; endogenous proteins; extracts from MH-S cells immunoprecipitated with anti-RNF128, anti-TLR4 or anti-IgG overnight at 4 °C, Dynabeads Protein G, washes with SNNTE buffer (0.5 M NaCl, 1% NP-40); immunoblot
molecule,measurement,setting,value
TLR4 (from UniProt Q9QUK6 26-835) (receptor),binding,[1],binds
Myeloperoxidase (from UniProt P05164 49-745),binding,[2],binds
"RNF128, RING finger protein 128 (protein, UniProt Q8TEB7 39-428) AEAVWTAYLNVSWRVPHTGVNRTVWELSEEGVYGQDSPLEPVAGVLVPPDGPGALNACNPHTNFTVPTVWGSTVQVSWLALIQRGGGCTFADKIHLAYERGASGAVIFNFPGTRNEVIPMSHPGAVDIVAIMIGNLKGTKILQSIQRGIQVTMVIEVGKKHGPWVNHYSIFFVSVSFFIITAATVGYFIFYSARRLRNARAQSRKQRQLKADAKKAIGRLQLRTLKQGDKEIGPDGDSCAVCIELYKPNDLVRILTCNHIFHKTCVDPWLLEHRTCPMCKCDILKALGIEVDVEDGSVSLQVPVSNEISNSASSHEEDNRSETASSGYASVQGTDEPPLEEHVQSTNESLQLVNHEANSVAVDVIPHVDNPTFEEDETPNQETAVREIKS",binding,[3],binds
"RNF128, RING finger protein 128 (protein, UniProt Q9D304 39-428) AEAVWTAYLNVSWRVPHTGVNRTVWELSEEGVYGQDSPLEPVSGVLVPPDGPGALNACNPHTNFTVPTVWGSTVQVSWLALIQRGGGCTFADKIHLASERGASGAVIFNFPGTRNEVIPMSHPGAGDIVAIMIGNLKGTKILQSIQRGIQVTMVIEVGKKHGPWVNHYSIFFVSVSFFIITAATVGYFIFYSARRLRNARAQSRKQRQLKADAKKAIGKLQLRTLKQGDKEIGPDGDSCAVCIELYKPNDLVRILTCNHIFHKTCVDPWLLEHRTCPMCKCDILKALGIEVDVEDGSVSLQVPVSNEASNTASPHEEDSRSETASSGYASVQGADEPPLEEHAQSANENLQLVNHEANSVAVDVVPHVDNPTFEEDETPDQEAAVREIKS",binding,[4],binds
